Out of some 580,000 compounds screened, about 6,100 (1.1%) were called active. Inconclusive results, whose numbers are uncertain, are shown with a selection of clear calls. Calls come from the whole dose curve; as a rule, active = well fitted inhibition curve with a large enough effect; inconclusive = small, poorly fitted or top-dose-only effect, or another doubt; inactive = no such curve, though single readings can be large or run the other way. Where the call is inconclusive, the potency comes from a doubtful curve fit.
Target: Polyunsaturated fatty acid lipoxygenase ALOX12 (Homo sapiens) (UniProt P18054)
Assay: Primary qHTS assay for inhibitors of human arachidonate 12S-lipoxygenase (ALOX12): Round 2
Details: purified 12hLO, xylenol orange hydroperoxide absorbance; series mostly up to 108 µM
In short: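 Purified human 12hLO at 150 nM in 25 mM Hepes, 0.01% Triton X-100, pH 7.0, preincubated 15 min at room temperature with compound. Reaction started with 40 uM arachidonic acid, 30 min at room temperature. Hydroperoxide measured by Fe-xylenol orange, 573/405 nm absorbance ratio.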
Potency is the fitted concentration of half-maximal effect.

Chains of the proteins cited; added tags and fusions are not shown. Lines headed by an entry give the natural chain unless they say otherwise; changes in a name come on top.
UniProt P18054: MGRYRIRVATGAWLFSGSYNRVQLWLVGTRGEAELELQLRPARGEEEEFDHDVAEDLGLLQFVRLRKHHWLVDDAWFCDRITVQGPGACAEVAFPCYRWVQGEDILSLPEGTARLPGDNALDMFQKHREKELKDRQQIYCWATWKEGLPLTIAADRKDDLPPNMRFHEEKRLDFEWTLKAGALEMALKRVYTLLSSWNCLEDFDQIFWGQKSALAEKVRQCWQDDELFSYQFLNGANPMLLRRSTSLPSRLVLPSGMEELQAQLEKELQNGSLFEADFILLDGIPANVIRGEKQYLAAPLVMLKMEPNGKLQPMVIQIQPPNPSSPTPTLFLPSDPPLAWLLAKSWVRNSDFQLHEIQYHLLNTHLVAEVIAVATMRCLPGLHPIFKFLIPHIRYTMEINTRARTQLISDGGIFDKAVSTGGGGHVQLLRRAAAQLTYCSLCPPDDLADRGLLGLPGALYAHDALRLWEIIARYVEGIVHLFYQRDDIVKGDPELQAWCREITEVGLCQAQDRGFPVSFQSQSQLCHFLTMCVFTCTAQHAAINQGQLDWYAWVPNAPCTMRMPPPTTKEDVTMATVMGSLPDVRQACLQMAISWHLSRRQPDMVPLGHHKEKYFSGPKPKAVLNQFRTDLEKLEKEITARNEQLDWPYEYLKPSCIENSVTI

| SMILES | Potency |
| --- | --- |
| CNCC(=O)N1CCCC(c2cc(N3CCOCC3)nc(C)n2)C1 (stereo not drawn) | inactive |
| Cc1nccn1CCC(=O)O | inconclusive: 35.5 µM [inhibitor, single point] |
| CCOCCCNC(=O)c1cnc2sc(N3CCCCCC3)nn2c1=O | inactive |
| CCc1ccc(NC(=O)CSC2=Nc3ccccc3C3=NC(CCC(=O)NCc4ccccc4OC)C(=O)N23)cc1 (stereo not drawn) | inconclusive: 141 µM [inhibitor, partial curve, poor fit] |
| O=C(Nc1ccccc1)OCCN1CCN(Cc2ccccc2)CCC1=O | inactive |
| CCOc1cc(/C=N/NC(=S)Nc2ccccc2C(F)(F)F)ccc1OCC(=O)N1CCOCC1 | inconclusive: 28.2 µM [inhibitor, partial curve, poor fit] |
| Cc1nn(-c2ccccc2)c(OC(=O)c2ccc(Br)cc2)c1S(=O)(=O)c1ccccc1 | inconclusive: 63.1 µM [inhibitor, partial curve, poor fit] |
| Cc1ccc(CC(=O)N(Cc2nc(-c3ccc(C)cc3)no2)C(C)C)cc1 | inconclusive: 56.2 µM [inhibitor, partial curve, poor fit] |
| Cc1ccc2nc(N3CCNCC3)c(-n3nc(C)cc3C)nc2c1 | inconclusive: 39.8 µM [inhibitor, partial curve, poor fit] |
| CN(C)c1ccc(C=c2c3cc(O)ccc3n3c2cc(-c2ccccc2)[n+]3C)cc1 | inconclusive: 44.7 µM [inhibitor, partial curve, poor fit] |
| CSc1nn2c(C(F)(F)F)cc(C(F)(F)F)nc2c1C(N)=O | inconclusive: 112 µM [inhibitor, partial curve, poor fit] |
| O=C(CN1C(=O)c2cccc3cccc1c23)N1CCN(Cc2ccc3c(c2)OCO3)CC1 | inconclusive: 0.708 µM [inhibitor, full curve, poor fit] |
| Cc1cc(Nc2cccc(Cl)c2)nc2ccc(NC(=O)CCC3CCCC3)cc12 | inconclusive: 126 µM [inhibitor, single point] |
| COCCCNc1oc(-c2cccc3ccccc23)nc1C#N | inactive |
| Cc1ccc(CNc2nc3ccccc3nc2NS(=O)(=O)c2ccccc2)cc1 | inactive |
| COc1cccc(NC(=O)CNS(=O)(=O)c2ccc3nc(C)sc3c2)c1 | inconclusive: 70.8 µM [inhibitor, partial curve, poor fit] |
| Cc1ccc(N2NC3(CCCC(C)C3)NC2=S)cc1C (stereo not drawn) | inconclusive: 0.891 µM [inhibitor, full curve, poor fit] |
| COc1ccc(C(=O)N[C@@H]2CN(C(=O)Nc3ccc(OC(F)(F)F)cc3)CCC[C@H]2O)cc1 | inconclusive: 10 µM [inhibitor, full curve] |
| O=C(N/N=C/C(Cl)=C\c1ccccc1)C1CC1 | inactive |
| O=C(Nc1ccc(C(=O)N2CCOCC2)cc1)c1cc(-c2cccnc2)nc2ccc(Cl)cc12 | inactive |
| CCCCn1nnnc1C(c1ccccc1)N1CCN(C/C=C/c2ccccc2)CC1 (stereo not drawn) | inconclusive: 89.1 µM [inhibitor, partial curve, poor fit] |
| CC1CCN(c2oc(/C=C/c3cccs3)nc2C#N)CC1 | inconclusive: 44.7 µM [inhibitor, partial curve, poor fit] |
| Cc1ccc(C(=O)NC(c2ccc(Cl)cc2)C2CC2)cc1 (stereo not drawn) | inconclusive: 50.1 µM [inhibitor, partial curve, poor fit] |

| SMILES | Potency |
| --- | --- |
| COc1ccc(-n2c(C)cc(/C=C/c3nc(O)c([N+](=O)[O-])c(=O)[nH]3)c2C)cc1 | inconclusive: 22.4 µM [inhibitor, partial curve] |
| O=C(Cn1nc2c(cc1=O)CCCCC2)Nc1ccc(Cl)cc1 | inactive |
| COc1cc(NC(=O)COc2ccc(-n3ccnc3)cc2)cc(OC)c1 | inconclusive: 100 µM [inhibitor, single point] |
| CC1CCc2nc(NC(=O)CSc3nc4ccccc4o3)sc2C1 (stereo not drawn) | inactive |
| Cc1cc(N2CCCC2)ccc1/C=C1\NC(=S)N(C)C1=O | inconclusive: 31.6 µM [inhibitor, partial curve, poor fit] |
| CCCC(=O)Oc1ccc2c(=O)c(Oc3ccccc3Br)c(C(F)(F)F)oc2c1 | inconclusive: 11.2 µM [inhibitor, full curve, poor fit] |
| O=c1cc(-c2cccs2)oc2ccccc12 | inconclusive: 112 µM [inhibitor, single point] |
| COc1ccc2c(c1)c1c(c(=O)n(-c3ccccc3C)c(=O)n1Cc1ccccc1C)n2C | inactive |
| Cc1ccc(NC(=O)CCC(=O)N/N=C/c2ccc(O)cc2O)cc1 | inconclusive: 7.94 µM [inhibitor, partial curve] |
| OC1(c2ccc(Cl)c(C(F)(F)F)c2)CCN(CCCC(c2ccc(F)cc2)c2ccc(F)cc2)CC1 | inconclusive: 44.7 µM [inhibitor, partial curve, poor fit] |
| O=C(NCc1nnc2ccc(-c3ccccc3)nn12)c1ccccc1F | inactive |
| Cc1nc2ccc(C(=O)OC(C)C(=O)NC3CCCCCC3)cc2nc1C (stereo not drawn) | inconclusive: 11.2 µM [inhibitor, full curve] |
| COc1cc2c(c(OC)c1OC)C(c1ccccc1C)CC(=O)O2 (stereo not drawn) | inconclusive: 100 µM [inhibitor, single point] |
| O=c1oc(=O)c2ccccc2c2ccccc12 | inconclusive: 31.6 µM [inhibitor, single point] |
| CC(C)NC(=O)CC[C@@H]1CNC(=O)[C@@H]2C[C@H](NCc3ccccc3)CN12 | inconclusive: 79.4 µM [inhibitor, partial curve, poor fit] |
| CC(=O)Nc1cc(C(=O)NCc2ccccc2)ccc1Sc1ccc(C)cc1 | inconclusive: 17.8 µM [inhibitor, partial curve, poor fit] |
| COC1CCN(CC2CCCCCN2)CC1 (stereo not drawn) | inactive |
| Cc1cc(C)cc(C(=O)N2CCN(Cc3nc(N)c4ccccc4n3)CC2)c1 | inactive |
| CCCCCn1c(SCCC(C)C)nc2c1c(=O)[nH]c(=O)n2C | inconclusive: 44.7 µM [inhibitor, partial curve, poor fit] |
| COc1ccc(C2(C(=O)N(C)Cc3ccc(F)cc3)CCOCC2)cc1 | inconclusive: 28.2 µM [inhibitor, partial curve, poor fit] |
| CCc1noc(C)c1C(=O)Nc1sc2c(c1C(N)=O)CCC(CC)C2 (stereo not drawn) | inconclusive: 44.7 µM [inhibitor, partial curve, poor fit] |
| O=C1NC2(CCCCCC2)C(=O)N1Cc1ccccc1Br | inactive |
| O=c1[nH]c2ccc(N=Cc3c(O)ccc4cc(Br)ccc34)cc2[nH]1 | inactive |

A few values from the results shown.
Under Potency, O=c1cc(-c2cccs2)oc2ccccc12 is entered as inconclusive: 112 µM [inhibitor, single point]
Under Potency, O=C1NC2(CCCCCC2)C(=O)N1Cc1ccccc1Br is entered as inactive
Under Potency, O=c1[nH]c2ccc(N=Cc3c(O)ccc4cc(Br)ccc34)cc2[nH]1 is entered as inactive

Additional structures follow.

| SMILES | Potency |
| --- | --- |
| O=C(NC1CCSc2ccccc21)c1ccc([N+](=O)[O-])cc1 (stereo not drawn) | inconclusive: 50.1 µM [inhibitor, partial curve, poor fit] |
| COc1ccc2cc(C(=O)N3CCN4CCS(=O)(=O)N(C5CC5)C(=O)C4C3)[nH]c2c1 (stereo not drawn) | inactive |
| Cc1ccc(S(=O)(=O)N(CC(=O)O)Cc2ccc(Cl)c(Cl)c2)cc1 | inactive |
| O=C(CC(=O)c1cccc(Cl)c1)c1cccc(Cl)c1 | inconclusive: 0.355 µM [inhibitor, full curve, poor fit] |
| C[C@]12c3[nH]c4ccc(Cl)cc4c3CCN1C(=O)[C@@H](CC(=O)NCc1ccco1)C[C@@H]2C(=O)N1CCCCC1 | inconclusive: 112 µM [inhibitor, single point] |
| CCc1ccc(C2=C(C)C(=NCC(=O)Nc3ccc(C)c(F)c3)NS2(=O)=O)cc1 | inactive |
| O=C(NC(=S)N1CCCc2ccccc21)c1ccc(Cl)cc1 | inactive |
| CC(C)CCC(CCN1CCCC1)c1ccc2c(c1)OCO2 (stereo not drawn) | inactive |
| Cc1ccc(CNC(=O)C(C(C)C)N2Cc3ccccc3C2=O)cc1 (stereo not drawn) | inconclusive: 141 µM [inhibitor, partial curve, poor fit] |
| N#C/C(=C/c1ccccc1)C(=O)NCc1ccccc1 | inactive |
| Cn1nc(C(=O)N2CCN(c3ccc(F)cc3)CC2)c2ccccc2c1=O | inconclusive: 44.7 µM [inhibitor, partial curve, poor fit] |
| Cc1cc(C)c2[nH]c(=O)c(CN(Cc3cccs3)C(=S)NCc3ccco3)cc2c1 | inconclusive: 50.1 µM [inhibitor, partial curve, poor fit] |
| Cc1ccc(NCc2cccnc2)cc1 | inconclusive: 2 µM [inhibitor, full curve, poor fit] |
| COc1ccc(N2CCN(CC(O)COc3ccccc3C(C)(C)C)CC2)cc1 (stereo not drawn) | inconclusive: 15.8 µM [inhibitor, partial curve, poor fit] |
| COc1ccc(-c2cc(C(=O)NCCc3ccccc3)no2)cc1OC | inactive |
| O=C(NC1CCCCC1)c1ccc(Cn2c(SCc3cccc(F)c3)nc3cccnc32)cc1 | inactive |
| CCc1ccc(C(=O)Nc2ccc(N(C)C)cc2)cc1 | inconclusive: 10 µM [inhibitor, partial curve, poor fit] |
| O=S(=O)(c1ccc2c(c1)OCCO2)C1CCC(S(=O)(=O)c2c(F)cccc2F)CC1 (stereo not drawn) | inconclusive: 112 µM [inhibitor, single point] |
| Cc1ccccc1-n1c(SCc2c(C)noc2C)nnc1-c1cccnc1 | inactive |
| COc1ccc(Cl)cc1NC(=O)c1c(-c2ccccc2)noc1C | inconclusive: 14.1 µM [inhibitor, partial curve, poor fit] |
| NC(=NCCCCCCN=C(N)N=C(N)Nc1ccc(Cl)cc1)N=C(N)Nc1ccc(Cl)cc1 | inconclusive: 21.7 µM [inhibitor, partial curve] |
| Cc1sc(NC(=O)C2CCCO2)c(C(N)=O)c1C (stereo not drawn) | inconclusive: 15.8 µM [inhibitor, full curve] |

Quoted at random: 2 entries already listed.

| SMILES | Potency |
| --- | --- |
| COc1ccc(Cl)cc1NC(=O)c1c(-c2ccccc2)noc1C | inconclusive: 14.1 µM [inhibitor, partial curve, poor fit] |
| Cc1ccc(S(=O)(=O)N(CC(=O)O)Cc2ccc(Cl)c(Cl)c2)cc1 | inactive |
